Test results: paper PMC6811503
Results are given in words; binding and its absence hold for the method and conditions named. Binding seen in cells or lysates may run through a third protein. These calls come from enrichment with a bait or labelling near it, and not all partners need be listed. Tags and fused reporters may be left off the sequences shown.

T1: Pbp1-4×FLAG (C. neoformans) (UniProt J9VND4)
T1 sequence: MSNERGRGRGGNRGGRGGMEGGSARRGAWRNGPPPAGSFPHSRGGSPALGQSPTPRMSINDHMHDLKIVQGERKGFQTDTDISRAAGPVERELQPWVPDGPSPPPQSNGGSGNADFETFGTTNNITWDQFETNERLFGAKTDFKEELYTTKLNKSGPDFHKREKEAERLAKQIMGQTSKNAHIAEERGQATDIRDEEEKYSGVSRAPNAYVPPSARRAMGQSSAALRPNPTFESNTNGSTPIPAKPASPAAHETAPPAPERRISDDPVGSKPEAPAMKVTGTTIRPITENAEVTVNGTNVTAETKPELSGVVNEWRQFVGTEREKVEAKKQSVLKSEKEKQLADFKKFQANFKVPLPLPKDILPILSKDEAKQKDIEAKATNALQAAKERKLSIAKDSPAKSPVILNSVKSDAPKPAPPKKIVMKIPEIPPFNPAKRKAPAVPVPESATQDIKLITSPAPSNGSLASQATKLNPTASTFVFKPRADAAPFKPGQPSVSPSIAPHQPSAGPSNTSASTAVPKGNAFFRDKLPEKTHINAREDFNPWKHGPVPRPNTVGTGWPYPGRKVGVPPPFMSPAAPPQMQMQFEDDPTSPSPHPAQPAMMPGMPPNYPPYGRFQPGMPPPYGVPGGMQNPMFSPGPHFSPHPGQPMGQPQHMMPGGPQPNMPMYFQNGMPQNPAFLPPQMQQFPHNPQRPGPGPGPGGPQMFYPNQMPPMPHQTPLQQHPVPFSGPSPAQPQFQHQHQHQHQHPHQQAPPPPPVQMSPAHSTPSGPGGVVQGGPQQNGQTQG

B1: Met6 (protein, UniProt J9VXF1 1-763)
chain: MVKSAVLGYPRIGVNRAMKKAIEAYWAGKISAEELQTTAKNVRKQRWESIKNAGVDTIPSGEFTLYDHLLDHSFNFGVIPERYVAQKLDPLDTYFAMGRGRQDRSKGIDVVACEMGKFFDSNYHIVKVDHSPETEFKLNNNQALSEYKEAKELGITTRPVLFGPITYLSLVRKANSAPAEFQPLDLLDKLIPVYKELLSQLKEAGVEEVQLDEPILVMDKAESQAELFKKTYEALAPVAPKITVTSAYGRVGKSIEFLKDLPVFALHLDLDREPKQLEEVVAAIKPTKLHLELGVVSGRNIWKNDLKASKALAEKAIAELGADRVSVSTSSSLLHTPISVKVENKLTAEQLSWLSFAEEKCEEVAVLAQALNGTEGAIFEQNTKDIAARREFERTSDSAVRDRVAAITEEQLKRKSPFPARREAQKKHLNLPKFPTTTIGSFPQTKEIRVARAKFSKGEITQEEYEKAMENEIKAVVDFQEKCGLDLLVHGEPERNDMVQYFGEQLNGFIFTQLGWVQSYGSRYVRPPIVVSDVSRPTPMTVKWSSYAQSLTEKPMKGMLTGPVTILNWSFPRADVSKEIQSKQLALALRDEVVDLAKAGIKAIQVDEPAIREGLPLRKADWDNYLTWAVDSFRLSTSGVEDDIQVHSHFCYSDFGDIFPSIQRLDADVISIEASKADLKLLDVFKSYGYSNEIGPGVYDIHSPRVPGEQEIKDRIAAMVKVLPADLMVVNPDCGLKTRGWKETEESLANLVAAAKWARETYA
B2: Cog6 (protein, UniProt J9VWF8 1-745)
chain: MATNPNTPAPPATRTNPISLKIYKAIGTSFDDVSSREALEIASGMYGPEEPKGKGKAQSGYEAIEEDDDTLPRRRTLKGQSAAIGRKYLKQDIETSLATGSAKFLEAFAEVDKKLNVLREHMQEMQVRCDQVQSELDQANSGTKFLLERADVLRSQRASAQLRAHLITLFLSRFTLSNSELTALTSREVTIGQPLFDALDHVEKIRTDCELLLSGEEGKAQAGIDIMSLTSEQLESGYIKIHRYCQFEFRQFTRETQLEVSPVMLQAIRRLRDRPALLADAIQTLTSTRQSSILHQFLDALTRGGPGGLPRPIEIHAHDPTRYVGDMLAWVHQTTATEHEFLEGMFGVKEKKRWVGQERDGEEGEEVRMASEVLDKDLEGLSRPLKLRIQQTIKSQEGVIMAYKIANLLQFYLVTMRKTIGGKAVLVQTLQEIHDQAYIAFYETLDAQGRSLLRFLHPPDATLTPPITLRDAAQILRELLFVYSTSLVDPAERESDTDLAKLLDKAIVPCVEMCERMAEMRRGKSGGGEWERDIFMVNSLGYLEHTLEMYDFTTKTLHMLDEKIKTHVESMTFEHHGKLLEACGLAAVMRTIRTRPEDTPLSRLHATSPKALTSALSKFSTWLSTVDPSTSPHLALLSSPRLAVEIHRKALRKIYDAYGEVCERVLDKAEGYEFGETMLRRGREEVGVALGVGDGWELEEDTEQRSMEQEEQQEKGTGDQGDKEKKGIMKEEQKGQDAENTDGEA
B3: YHR020W (protein, UniProt J9VGR3 1-740)
chain: MLRAFFKHSRAFTTTRHHIHIMSVTDTTILDRLAQLQIAHPDVISHAPVKGAAEWKAELTLASANHATTPLTKTLLFKPKTAKSAVPTPVMVLAQENTETPSGAIGKFLELKELRLASEDLIKEVIPSAASKDDVSAFALPKPVPETLHLLLDAKLAKSEEQHAIHLTSSATTLLIKGSDIKAYLDNLVEGEGVKIIDFAELKASAPAPIEKKPAAAKEAKAEASTAVADDDRYEMAIRFKKDEDFSGWYTDVLLKGQMLDYYDISGCYILRPWSYSIWQIIQNWFDDEIKKLGVQDCYFPMFVSSARLEKEKDHIEGFAPEVAWVTKAGSSDLEEHIAIRPTSETVMYPYYAKWINSHRDLPLKLNQWNSVVRWEFKNPQPFLRTREFLWQEGHTAFLDKADADKEVLDILELYRKVYEDILAVPVIPGKKSEKEKFAGGDYTTTVEGFIPTTGRGIQAATSHHLGQNFSKMFDITVESPDKSQGRLYAYQNSWGLSTRSLGVMVMVHGDDQGLVLPPRVALQQVAIVPVGLSKGEGKNQPIYDACLKLERELVAAGIRAKADLRDGYTPGWKFNDWEMRGVPLRLELGPRDIANNSTLSVRRYDNHKAPMPLSDIANTVRTYLDDIQKSMLDRAAATFSDRLKVVTSWEDVVPTLDAKNVLVLPWCEAEECEDEIKEKSKSLANKGAAEDAKAPSAGAKSLCIPFDQKRFGEFPQGEEQKCVQCGKKAKSWTLFGRSY
B4: Hrb1 (protein, UniProt J9VJ75 1-549)
chain: MEDDREMRGDEPMAPEAGDRYRRDDRDRSRSRERHSSRRDEDRYRSRRRSYSRSRSRSRTRSPHRHRHRSPSRSRSRSRDRRDRDRSRSRDRGERRSYREDRHGGDHRGSGRPRSPRRGSGRYGAPRQDWEKSVGGPMNAPASEAEAHAKVSKRENRLYVGNLAYDCNYKDLANFMERGGGKVVFSEVLTTPAGQSKGCGIVEFASQEEAQRAKAELSDKPFFGRSVFIREDREETARFGAPPIPGKIGIALGEARHFLGNQQPHGFHGHGPAIPNRNLFVGNLPLQASWQDLKDLMRQAGEVIRADIGFRPDGTPKGNGTVVFLNADDAKAAIEMFNGFDWFGNVLEVREDRFAHGGAFRGRGGFRGAFFPRGGFGFRGGFRGGFRGGFMGGGMGMGHMGMNAVAGGVGAGGAAAAAGGRNFSNDLYADYNGPEGGEGMAVDQVAPSGLEPIPAEPNQQILVRNLPWSTSNEDLVELFETIGTVTLAEILYSGGQSKGEGIVQFAETADAANASEKFMGWPYGGRALDVQFNPRWHEFSASAIKVPQA
B5: Aco1 (protein, UniProt J9VL89 1-792)
chain: MVSSRYLVRGANSLSRQSMLAKRSMATVQSSIGDKKVEMSNLEKGKFINYQRIENNLQVVRSRLNRPLTLAEKIVYGHLDNPHEQDIERGVSYLKLRPDRVACQDATAQMAILQFMSAGLPQTAVPTSVHCDHLIQAQIGGKADLARAIDINKEVYDFLATACAKYGIGFWKPGSGIIHQIILENYAVPGLMMIGTDSHTPNAGGLGMVACGVGGADAVDVMADIPWELKAPKVIGVYLDGKMNGWTTPKDVILKVAGILTVKGGTGAIIEYHGPGVESLSCTGMATICNMGAEIGATTSLFPFNHRMGTYLKATNRPAIAQYAEEFNHNLQPDEGCEYDQRIEINLSELEPHINGPFTPDLATPLSKFAEEVKRHSWPQELKVGLIGSCTNSSYEDMSRSAHIAREAASHGLTAKSKFTITPGSEQVRATIARDGMVDDFEKVGGLVLANACGPCIGQWDRRDVKKGEANSIITSYNRNFTGRNDANPATHAFVASPDLVTAMIFAGDLTFNPMTDTLKGADGKEFKFSDPSGYELPAKGYDPGENTFQAPPADGTTVSVAVSPTSDRLQLLKPFKPWDGKDIIDARVLIKAKGKCTTDHISAGGPWLKYRGHLENISQNCLIGAINADNGEANKILNQETGEYGAVPTVAAYYRDRDIPWVVVGDENYGEGSSREHAALEPRFLGGRAVICRSFARIHETNLKKQGMLPLWFKNPADYDKISGTDKISILDLQNFKPGQDIKVELTHKDGSKEQFLTTSSINEGQWGWFKAGSALNMMASAAKARAEKQA
B6: CNAG_00410 (protein, UniProt J9VER4 1-755)
chain: MATHTPQTNSTPAIVGEKVPLNTQALPKIVFAGRTGRILCVADIRGDYHELNRLIREHDATAVIHTGDFGFMTAESVDRMNDKILRHLIQYSPLLPPAARTQLLGIPPSAGRSALINQLNNSSVHFPLSQFPHLLSGAINFPVPVFTTWGLVEDVNVIEKFRTGEYGVQNLAILDEATSRLVEVGGVKLRLLGLGGTVADHKLFDYGEGHGSIAGAQGTMWTTALQIGELIDTAQRTFNPDETRLFVSTAPTSRNGLMTLVSNAIKADLTISCGLHFRYPVSYNEYSIHPDFESYRRKTQQAKDDFKGLFDQVRDRVFGSLDDKQTALLHKTLSAIDNVPIADDGMWANTWHWSLSDAGFGNMLLSISDSRVSAETKSSGVNFAHRTGKGPAPPTGTTISSAPSGLNSVKSFSSRPGPGPVGARPPPAQGMPPASGPLGAHGAPGAFASQGRVPVRPGMGPGFSARPPPGPRNTRQFGSNPASSMGGLSQSQMFAQAQAQAAVSGKTAAAASLVNGRKDEKNGKPEGEKGVNEEEKKEKLAANGNAIPEKIKDTDKIEEKKDANPIEKDEDQEKSQDENPWGEDKEEKKGSNPWADDISDEGEKKDEDKAEFTEDVKPKRYSLYIKGLPTPTTEEELKAVVGESGQKAIQVKIIFDQFTKQQKDFGYLDFDSEEVMNEALKASTGTIRDTPVNVSISKPTVPRYNNRQFGGPGGRGRGGFRGRGRGFGSAGPRRERGEREGSGSGNATAGGEKKA
B7: Puf6 (protein, UniProt J9VN98 1-688)
chain: MAPKAVQKKRSAPDAGSAPKKAKIVQSGKSSKPAAQKQSKPRSAPREREEEAKKRKKPITQGGGEENEDVSMDEGSFSDEDQEDQETERNDVEMDDGDAQEAAPEKKRLSKAEKQALHAAQPHRTTLLPSHPLLHDTLLPLWETARRADLSKEERKKAITELWEAVKGRVIEVSRGHKGGRVLQTIVKYGGKEERLGVAMELEPQWKAMMESKYSKFLMSKLIRYCPSIRPLLIPHLAPQLLNLLNHAHAVTPLSDLYELWASAKERRLLVRGFYPREVKIFDGAKQGVEVKGLEASLEDMGEGKGRERVLDAIEKTVLDVFNATQKNALGQAIFHRLVLEYVQCIYKFLDAETSSKKMHELLAAGAESFPEIVHTKDGSAVVRELIVRGNAKDRKQILQPLRKHVEALCKDGDAQMVLFTAFDCVDDTKLMGKAFVSDIVSLAPELAFDKHGRRAIFYLLTPTSTRHFIHASLTSLAESAQKSKELGTSKKGMDVRRKELLSYANEGLVKLVEEKGEEMVRDPGAGLVVQEIMLYAQGDKSAAIQTLASALTLPYPDPAPLDPNPDPTVSHPLDLSHAIRTYKLLLSGGHFDHKTQTLSIPDSSLSPAFSRAVWDALTSAEAGGAENVGRVCKGNAPFVMVELIEGMKKRGDGEEVKKILGKKGVKETVEKSVRKGTALLTEKIGEL

Target: T1, Pbp1-4×FLAG (C. neoformans)
Assay: affinity purification with mass spectrometry; anti-FLAG M2 affinity gel on lysate of HP181 (Pbp1-4xFLAG), untagged H99 as control; cells grown at 30°C then 1 h at 37°C; lysis buffer 50 mM Tris-HCl pH 7.5, 150 NaCl, 0.5 mM EDTA, 0.5% Triton X-100; 4°C; one Coomassie-stained band seen only with HP181 was excised, digested with trypsin and analysed by LC-MS/MS

Row | Binder | binding
1 | B1 | binds
2 | B2 | binds
3 | B3 | binds
4 | B4 | binds
5 | B5 | binds
6 | B6 | binds
7 | B7 | binds
